# Experimental data: patent publication US10294227B2, “Compounds” (UNIVERSITY COURT OF THE UNIVERSITY OF EDINBURGH, priority 2015, dated 2019)
# Assay: Liver microsome stability
# Type: in vitro ADME
# Settings: % of unmodified drug after 30 min incubation with liver microsomes
structure (smiles),measurement,value
"CCN(CC)CC(=O)Nc1c(C)cccc1C [Lidocaine, reference compound]",30 min Liver Microsome stability,92.0%
